Experimental data published in publication PMC11157272, “Fructose-1-kinase has pleiotropic roles in Escherichia coli” (The Journal of Biological Chemistry, 2023).
No constants are given. Whether binding was seen depends on the method and setting. In cells and extracts the contact can be indirect. Some entries that bind do so weakly or less than the wild type.

Sequences of proteins named here, by UniProt entry; tags and fusion partners are left off.
UniProt P0ACP1: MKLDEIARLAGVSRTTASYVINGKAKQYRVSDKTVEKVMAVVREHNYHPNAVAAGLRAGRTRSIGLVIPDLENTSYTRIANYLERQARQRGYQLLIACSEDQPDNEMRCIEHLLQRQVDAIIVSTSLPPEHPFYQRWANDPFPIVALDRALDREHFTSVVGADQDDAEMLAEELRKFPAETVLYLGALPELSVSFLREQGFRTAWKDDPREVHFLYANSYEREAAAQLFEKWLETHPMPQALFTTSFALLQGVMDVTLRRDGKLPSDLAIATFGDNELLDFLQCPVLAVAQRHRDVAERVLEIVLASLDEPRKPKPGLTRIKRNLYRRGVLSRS

Target: catabolite repressor activator protein (WT Cra), untagged (E. coli) (UniProt P0ACP1)
Experiment: pull-down; DNA pull-down: biotinylated operator DNA (lacO^1 or O^cra) on streptavidin magnetic beads incubated with crude lysates of E. coli 3.300 over-expressing LLhF or WT Cra; cells grown in MOPS media with glycerol, with or without 20 mM fructose; washed in FB buffer (10 mM Tris-HCl, 150 mM KCl, 10 mM EDTA, 5% DMSO, 0.3 mM DTT, pH 7.4); SDS-PAGE, silver stain

binding: binds
B1: fructose-1-kinase (FruK), endogenous, expressed from the genomic fruBKA operon (enzyme, UniProt P0AEW9 1-312)
chain: MSRRVATITLNPAYDLVGFCPEIERGEVNLVKTTGLHAAGKGINVAKVLKDLGIDVTVGGFLGKDNQDGFQQLFSELGIANRFQVVQGRTRINVKLTEKDGEVTDFNFSGFEVTPADWERFVTDSLSWLGQFDMVCVSGSLPSGVSPEAFTDWMTRLRSQCPCIIFDSSREALVAGLKAAPWLVKPNRRELEIWAGRKLPEMKDVIEAAHALREQGIAHVVISLGAEGALWVNASGEWIAKPPSVDVVSTVGAGDSMVGGLIYGLLMRESSEHTLRLATAVAALAVSQSNVGITDRPQLAAMMARVDLQPFN
